# Results as given in paper PMC7819943, “Rice protein-binding microarrays: a tool to detect cis-acting elements near promoter regions in rice”.
# The chains behind the UniProt entries cited, without tags or fusion partners.
# UniProt Q0JBA9, entry or part of it: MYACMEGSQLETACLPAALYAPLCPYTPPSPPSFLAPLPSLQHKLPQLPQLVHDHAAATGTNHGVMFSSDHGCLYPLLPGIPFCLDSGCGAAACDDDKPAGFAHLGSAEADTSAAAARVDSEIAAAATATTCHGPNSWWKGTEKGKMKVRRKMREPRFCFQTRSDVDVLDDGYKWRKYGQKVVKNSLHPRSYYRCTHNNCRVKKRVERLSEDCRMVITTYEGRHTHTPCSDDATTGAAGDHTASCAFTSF
# This is one part of the list.
# Molecular target: OsWRKY34 (Oryza sativa, UniProt Q0JBA9 1-250)
# Assay: protein-binding microarray (RPBM); PBS, 2% BSA, 51.3 ng/ul salmon testes DNA, 50 uM zinc acetate, 200 nM TF, 25 C, 1 h; high values mean tight binding
# Conditions: protein: recombinant; tags: N-terminal polyhistidine and DsRed monomer fusion (pET32a); label: CyDye5-dUTP incorporated in the synthesized complementary strand; 3' TTTTT single-stranded linker to array surface; dsDNA, one strand shown
# Procedure, shortened: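 Using Ni–NTA, transcription factors fused N-terminally to polyhistidine and DsRed were purified after expression in E. coli BL21-CodonPlus. These were incubated at 200 nM with a blocked, double-stranded custom Agilent array for 1 h at 25 °C in a buffer containing 50 µM zinc acetate, and the array was washed. The binding signal is per-feature fluorescence intensity (arbitrary units) on an Axon 4000B scanner.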
row,Sequence,binding signal
1,TCTCGCAATTTCTGTCAGAACTATGTAATTGGTTTTTTTCCGGAGTCACCTAGTGCAG,8490 fluorescence intensity (a.u.)
2,CTCTACTCTACTGTGCCTCACCTCTTGCCACTACTATTTCCGGAGTCACCTAGTGCAG,11000 fluorescence intensity (a.u.)
3,CTGTGTACCCGCGCACACGCAAACCATTTGCATTTGAGCCCGGAGTCACCTAGTGCAG,9470 fluorescence intensity (a.u.)
4,TGGTTTTCACGGCGAGCCATCTTGTTGTAGCTGTCGGAGTCGGAGTCACCTAGTGCAG,11500 fluorescence intensity (a.u.)
5,CTTTTATGTGATGTTTCCTTAGCATTGTAAACCAGCTTTCCGGAGTCACCTAGTGCAG,8800 fluorescence intensity (a.u.)
6,ACCATGTGAAGCTTAGGCTGTCTATCTAACGTTCTGAATTCGGAGTCACCTAGTGCAG,8400 fluorescence intensity (a.u.)
7,TAGGTGAGGGCGGTGCGCTTGTCGACGGGGTTGAAGGGGACGGAGTCACCTAGTGCAG,10700 fluorescence intensity (a.u.)
8,GCCTCTTATCCCTTTCTCTCTTCTTCCGCCGCCGCGTCCTCGGAGTCACCTAGTGCAG,12500 fluorescence intensity (a.u.)
9,TTATTCTTTTTCTTGTTATTGTTTCGTATCGGCCATTCTCCGGAGTCACCTAGTGCAG,9500 fluorescence intensity (a.u.)
10,GCTCTTCCACCTTTCACTCTTCCCCACTGCCCACCACTGTCGGAGTCACCTAGTGCAG,8360 fluorescence intensity (a.u.)
11,ACACCCAACCTCCGGCCGGCCGGTTCGTCCTCCCTGTAGTCGGAGTCACCTAGTGCAG,8650 fluorescence intensity (a.u.)
12,ACATGCATGCTGTTAGTGGTGGGATCTTTCAGGGGCTTTACGGAGTCACCTAGTGCAG,11700 fluorescence intensity (a.u.)
13,GTGTGTGTTTTTTTTTGCTGATTGGATTTCCACGTCGACGCGGAGTCACCTAGTGCAG,12000 fluorescence intensity (a.u.)
14,CCCCACCCACCTCCTTGTAAGTTGCAACCTCCCGCCTCACCGGAGTCACCTAGTGCAG,8330 fluorescence intensity (a.u.)
15,TGCTATATATTAGTTTTGGATATACATTTCTGGCGTAGTTCGGAGTCACCTAGTGCAG,8430 fluorescence intensity (a.u.)
16,TAATTCATGGTTGGTTTTTAATTATATTTCCCTCCTTAAACGGAGTCACCTAGTGCAG,9580 fluorescence intensity (a.u.)
17,AGCCGCGCCAAGTGCTTTCCGATTGATTATTGCCGCGAATCGGAGTCACCTAGTGCAG,9850 fluorescence intensity (a.u.)
18,TAGTTTTGTCCCAGTCCCAGCACCAGCTCACCACTTGCTACGGAGTCACCTAGTGCAG,8690 fluorescence intensity (a.u.)
19,AGCTAGGCACCGTTCTCAACAGAGTTATACTAAACGGATCCGGAGTCACCTAGTGCAG,8580 fluorescence intensity (a.u.)
20,TGGTCGTCGGAGTTGGTTTCTTTGTGTTTCTTCTTTAGCGCGGAGTCACCTAGTGCAG,9280 fluorescence intensity (a.u.)
21,TCTATTACCTCGATCTGTTCTAGTGAAATCTCATTAGACACGGAGTCACCTAGTGCAG,9220 fluorescence intensity (a.u.)

row,Sequence,binding signal
1,TATCCTCTCGTTTTGTGCATGTCACCTAAATAGTTATAAACGGAGTCACCTAGTGCAG,8110 fluorescence intensity (a.u.)
2,CATCCCTGAATTTATCTACACGGTCGAGATTTTTTTTATACGGAGTCACCTAGTGCAG,8290 fluorescence intensity (a.u.)
3,CTCCTTCTCCTGCATGCTGCTGCCCTTGCAGGTCTTTTTTCGGAGTCACCTAGTGCAG,8270 fluorescence intensity (a.u.)
4,TTTCTTGCTGTTCCTACGCCCAATTCGTCCTGATCTGGTTCGGAGTCACCTAGTGCAG,11700 fluorescence intensity (a.u.)
5,GCTCTCTCTATCTTTTTTTTTGAGAACTCTCTCTCTCTCTCGGAGTCACCTAGTGCAG,8170 fluorescence intensity (a.u.)
6,GCACCTTTCAAATTCATCTGATTTATGCATTCTTCTGTAACGGAGTCACCTAGTGCAG,8790 fluorescence intensity (a.u.)
7,TACTCCCTCCGTTTTTTAATAGATGACGCCGTTGACTTTTCGGAGTCACCTAGTGCAG,16100 fluorescence intensity (a.u.)
8,AACTTTTGTCATTCTTCATTTGTCATTTCACATGGATCTACGGAGTCACCTAGTGCAG,8560 fluorescence intensity (a.u.)
9,TCAGGACATTCTTCTCCATCTTCTCTACTACAGTACTATACGGAGTCACCTAGTGCAG,9500 fluorescence intensity (a.u.)
10,GCCCCATCCTACTACTACTCCTACACCCGTCTACTCCACTCGGAGTCACCTAGTGCAG,12800 fluorescence intensity (a.u.)
11,ACTGCCATGTCCATTTCTTGTCCTTCATTGTACTACTGCTCGGAGTCACCTAGTGCAG,15400 fluorescence intensity (a.u.)
12,ATAACTACTATATGTGGTGCACTAATTCCTCTTTAATTTCCGGAGTCACCTAGTGCAG,9430 fluorescence intensity (a.u.)
13,AACCGCTGATCTGGCTTGTGGTATGTGTTTGTGCTCCTCTCGGAGTCACCTAGTGCAG,10200 fluorescence intensity (a.u.)
14,GGCACGGCGGGGTGGGAGCTCGGGCGCGAGCCGGTCACCTCGGAGTCACCTAGTGCAG,8470 fluorescence intensity (a.u.)
15,TCCACCTACTGGGTCTTACATTCTTCATACTTCATTCATCCGGAGTCACCTAGTGCAG,10400 fluorescence intensity (a.u.)
16,TTTTTGCCCCATTCTTGCAGCTTTCTTGCCCATCAAACTGCGGAGTCACCTAGTGCAG,8940 fluorescence intensity (a.u.)
17,TTTGTTGTACTAAGAGGGTCAGGTTGGTTTTTTTAAAGATCGGAGTCACCTAGTGCAG,8300 fluorescence intensity (a.u.)
18,ACATCAACACACCATCACTCGCACAAAACACACTAATAAACGGAGTCACCTAGTGCAG,8440 fluorescence intensity (a.u.)
19,TGAAAAACCGGGGCCCCTTATCCTCGAACCAGGCGCCCTACGGAGTCACCTAGTGCAG,8710 fluorescence intensity (a.u.)
20,CGTTTTTTAATAGATGACGCCATTGACTTTTTCTCACATACGGAGTCACCTAGTGCAG,11000 fluorescence intensity (a.u.)
21,GTTTGATTTGGTGAGGCGGGCGGTGTGCGCGTGGTGGTCTCGGAGTCACCTAGTGCAG,8680 fluorescence intensity (a.u.)

# Look-ups from the list:
# Entry of GCTCTCTCTATCTTTTTTTTTGAGAACTCTCTCTCTCTCTCGGAGTCACCTAGTGCAG under binding signal: 8170 fluorescence intensity (a.u.)
# Entry of AGCCGCGCCAAGTGCTTTCCGATTGATTATTGCCGCGAATCGGAGTCACCTAGTGCAG under binding signal: 9850 fluorescence intensity (a.u.)

# (list continues)

row,Sequence,binding signal
1,CGGCCTCCTCATCCTCACTGCACAAACGTTTTCTCTCCTCCGGAGTCACCTAGTGCAG,9640 fluorescence intensity (a.u.)
2,GAAAACTAGCTTTGTCATCATTTCCGCTTCGTTCCGGCTGCGGAGTCACCTAGTGCAG,8050 fluorescence intensity (a.u.)
3,CATGCATGTTTTACATCTAGTGTGATTGTCTTAATCTTATCGGAGTCACCTAGTGCAG,8950 fluorescence intensity (a.u.)
4,TTTGGTGCCCGGCTCCTAATACCTCGCAAGTATCATCTAACGGAGTCACCTAGTGCAG,8080 fluorescence intensity (a.u.)
5,GGACGGAGGAGGAGGAGGAGGTGGGCGTGGAGATTGGTAGCGGAGTCACCTAGTGCAG,8400 fluorescence intensity (a.u.)
6,GTACATATCCTTGTCGGCGAACCAATGCATTTCCATAGCCCGGAGTCACCTAGTGCAG,10300 fluorescence intensity (a.u.)
7,CATCTCAGGACAAAGTCTTCTATATACGGCCAACTCTATCCGGAGTCACCTAGTGCAG,8040 fluorescence intensity (a.u.)
8,TTGTTACTGTTTGGTACTTCTATTTCCTGTCCACTTTCTTCGGAGTCACCTAGTGCAG,11700 fluorescence intensity (a.u.)
9,GTAATCGCATCTGCCCATGGCGACCCCGGTCTCCTCCGCGCGGAGTCACCTAGTGCAG,8620 fluorescence intensity (a.u.)
10,AGCACCTACGGCGGCGTCTTCTCCTACTGCCTACCGCCGACGGAGTCACCTAGTGCAG,9000 fluorescence intensity (a.u.)
11,GCTTTCTTTCGATGCAACAATCCCCTTTTGTTGACTTACCCGGAGTCACCTAGTGCAG,8280 fluorescence intensity (a.u.)
12,TCATCAACCGTGCCACGGTGCCGATCGATCAGCGACACAACGGAGTCACCTAGTGCAG,8720 fluorescence intensity (a.u.)
13,CCAGCACGTTAGCCGATATTAATCATATCCCTGTTCCAACCGGAGTCACCTAGTGCAG,8740 fluorescence intensity (a.u.)
14,TTCCTCGTTCAAAATTCTTCTACTTCATATGGCCTGTTTACGGAGTCACCTAGTGCAG,10300 fluorescence intensity (a.u.)
15,TATTTCCTCTGCATTAAGTCATCTCCTTTCCTTTTTTTTTCGGAGTCACCTAGTGCAG,10200 fluorescence intensity (a.u.)
16,TGTCGCATCTGTTTCCGCTCCTGCTCATAGCGCTGATACTCGGAGTCACCTAGTGCAG,8310 fluorescence intensity (a.u.)
17,AGAGCCGTAGACAAACGTCGATCGATCCTCGGTTCCAGCTCGGAGTCACCTAGTGCAG,8570 fluorescence intensity (a.u.)
18,ATCTGTGTTGTTTTCGGTGTGTTTCTCCGGCTGGGGATGACGGAGTCACCTAGTGCAG,10200 fluorescence intensity (a.u.)
19,ACAGTACGCTACTATTCATACGCTAAATTTGTCTTTTTTACGGAGTCACCTAGTGCAG,9830 fluorescence intensity (a.u.)
20,TTTATTTTGTTGTTCCTTTAGTTGTGGACTACTTGAGTCTCGGAGTCACCTAGTGCAG,8280 fluorescence intensity (a.u.)
21,ATATCAGCTGCCCATTGTCCATATCTTCTTGGTTGTTGCCCGGAGTCACCTAGTGCAG,10300 fluorescence intensity (a.u.)

row,Sequence,binding signal
1,CATTTTCTTTCTTCTTCCTTATCCTTTTCTCTCTTTCTCACGGAGTCACCTAGTGCAG,9410 fluorescence intensity (a.u.)
2,CCTCTCTTGATTGTGTTGTGCAGTTTGTTTGTGTAGTGGACGGAGTCACCTAGTGCAG,10300 fluorescence intensity (a.u.)
3,TTTCTTCCCACCATGGTCGCTTATGTAGCGACATCCCCGTCGGAGTCACCTAGTGCAG,8730 fluorescence intensity (a.u.)
4,CGTAAATTTCACTCGCTGTTGCCCTATCCTTAGCCGTTGACGGAGTCACCTAGTGCAG,10500 fluorescence intensity (a.u.)
5,GGCTGGTGCTGGAAGGGTGGGCGCTGCAATGGTACATGTGCGGAGTCACCTAGTGCAG,9350 fluorescence intensity (a.u.)
6,ACGTTTTATTTTAGCCCGGCCTCTTTTTCTCCGTCACCCGCGGAGTCACCTAGTGCAG,10100 fluorescence intensity (a.u.)
7,GTACCAGGTGGCCCGATTCTCTCGTACCAATTTCCACCAGCGGAGTCACCTAGTGCAG,8400 fluorescence intensity (a.u.)
8,CTGGCCATCTCTTCCGCGCCCAGATGAAGCAGTTACACACCGGAGTCACCTAGTGCAG,8780 fluorescence intensity (a.u.)
9,TTTAACGTCACCTTTCTCGTTTGCTGCTCATTTTGCTTACCGGAGTCACCTAGTGCAG,13500 fluorescence intensity (a.u.)
10,AACCTAAAAAAACCACCACCACCCACGCAACACAAACACACGGAGTCACCTAGTGCAG,8430 fluorescence intensity (a.u.)
11,GCTCTATCCAATCTCCCACATCAGCCACACCATCAAAAGCCGGAGTCACCTAGTGCAG,8920 fluorescence intensity (a.u.)
12,GCCGCCTCGCTTCCACTTCCTCTCCTCTCCCCTCGACACACGGAGTCACCTAGTGCAG,8090 fluorescence intensity (a.u.)
13,TTTGCTTTGCGCACGGTGATTTCGCCCTTGTCCCGGTCGACGGAGTCACCTAGTGCAG,8730 fluorescence intensity (a.u.)
14,GATCTCGCCTGCCCCTCCGCACCAGCCCTCGCGACTCATGCGGAGTCACCTAGTGCAG,8420 fluorescence intensity (a.u.)
15,TACTGATTCTTTTTTCAAATTCCAGACACACATAGCCACTCGGAGTCACCTAGTGCAG,8910 fluorescence intensity (a.u.)
16,GTTCTCCTATACAACTCCACTTGTCATTAGTCATGCACTGCGGAGTCACCTAGTGCAG,9940 fluorescence intensity (a.u.)
17,TTGTACTCTTACAACCGCCGTCTTCATTCCAGTAAGCTATCGGAGTCACCTAGTGCAG,14000 fluorescence intensity (a.u.)
18,TAAACCCACGGCGATCTCCTCCTATATTTCCTCCGGTCGCCGGAGTCACCTAGTGCAG,8520 fluorescence intensity (a.u.)
19,GTTTAATGGTAGTGCATGGGTTGTGATTATTTCCTACCATCGGAGTCACCTAGTGCAG,8730 fluorescence intensity (a.u.)
20,TGCTTATGGACTACTTTTACACTACATTGTGGATGCCCTACGGAGTCACCTAGTGCAG,10100 fluorescence intensity (a.u.)
21,TAACCCTAGCTTGCTGTCGCCGCCGCCGCCGTCCATCGCCCGGAGTCACCTAGTGCAG,11300 fluorescence intensity (a.u.)

# Quoted from the results shown for reference:
row,Sequence,binding signal
7,GTACCAGGTGGCCCGATTCTCTCGTACCAATTTCCACCAGCGGAGTCACCTAGTGCAG,8400 fluorescence intensity (a.u.)
8,CTGGCCATCTCTTCCGCGCCCAGATGAAGCAGTTACACACCGGAGTCACCTAGTGCAG,8780 fluorescence intensity (a.u.)
